Measurements reported in PubChem BioAssay AID1259286 (Sanger Institute, 2017).

Test: 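Kinome knock-downs lethal on their own or synergistic with anchor drugs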 (primary screen)
System: NCI-H630 human colorectal cancer cells
Knock-down reagent: siRNA pool against human genes
Challenge: anchor drugs BYL719 at 1 µM, cetuximab at 5 µg/ml or trametinib at 10 nM, or DMSO vehicle alone; exposure time not given
Measurement: 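Replicate-averaged viability as a fraction of non-targeting control, knock-down-alone robust z-score, and per-drug synergy scores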
Reading the numbers: viability z-score, knock-down alone: higher = more viable cells, weaker knock-down effect
Rule for the call: 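a gene is called essential when its knock-down-alone viability robust z-score is below -3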
Meaning of the calls: active = essential when knocked down alone; inactive = not essential alone
The whole screen tested 794 reagents; below is a random part of them. 17 of all reagents (2.1%) count as active. 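Calls use knock-down alone only; synergy above 0.15 marked separately; viability seems capped at control level; exposure time not given.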 Entries without a mark were called inactive. Further read-outs or replicates are left out here. The record does not give: the amount of reagent, the time to read-out.

For PPP2R1A, the values are viability z-score, knock-down alone 0.464.
For RIOK3 the deposit lists viability z-score, knock-down alone 0.464.
Against CTNNB1, the values are viability z-score, knock-down alone -1.52.
Knock-down of ULK3 resulted in: viability z-score, knock-down alone 0.464.
PTEN showed viability z-score, knock-down alone -0.802.
With knock-down of PDXK, the record shows viability z-score, knock-down alone -0.827.
With knock-down of ACO1 the results were viability z-score, knock-down alone 0.464.
For CALM3 the deposit lists viability z-score, knock-down alone -1.48.
With knock-down of RPS6KA2, the screen gave viability z-score, knock-down alone 0.464.
Against RYK, the entry reads viability z-score, knock-down alone 0.464.
After knock-down of LCK, the record shows viability z-score, knock-down alone 0.464.
For PTK7, the values are viability z-score, knock-down alone -1.1.
Against MGA the deposit lists viability z-score, knock-down alone 0.277.
Against CDK11B, the values are viability z-score, knock-down alone 0.464.
With knock-down of EXOSC10, the screen gave viability z-score, knock-down alone -0.0647.
Against PKN3, the entry reads viability z-score, knock-down alone 0.464.
Knock-down of MAPK12 gave: viability z-score, knock-down alone 0.464.
Knock-down of SYNCRIP resulted in: viability z-score, knock-down alone -1.02.
MYH10 showed viability z-score, knock-down alone 0.115.

Entries above whose gene name starts with C or c (3):
CTNNB1 → viability z-score, knock-down alone: -1.52
CALM3 → viability z-score, knock-down alone: -1.48
CDK11B → viability z-score, knock-down alone: 0.464
